Laboratory results as given in the supplement of paper PMC10849652.
Some of the results follow.

Sequences of proteins named here, by UniProt entry; tags and fusion partners are left off. A change or cut given only in a name is not applied to a line headed by its entry.
UniProt Q9P0J1: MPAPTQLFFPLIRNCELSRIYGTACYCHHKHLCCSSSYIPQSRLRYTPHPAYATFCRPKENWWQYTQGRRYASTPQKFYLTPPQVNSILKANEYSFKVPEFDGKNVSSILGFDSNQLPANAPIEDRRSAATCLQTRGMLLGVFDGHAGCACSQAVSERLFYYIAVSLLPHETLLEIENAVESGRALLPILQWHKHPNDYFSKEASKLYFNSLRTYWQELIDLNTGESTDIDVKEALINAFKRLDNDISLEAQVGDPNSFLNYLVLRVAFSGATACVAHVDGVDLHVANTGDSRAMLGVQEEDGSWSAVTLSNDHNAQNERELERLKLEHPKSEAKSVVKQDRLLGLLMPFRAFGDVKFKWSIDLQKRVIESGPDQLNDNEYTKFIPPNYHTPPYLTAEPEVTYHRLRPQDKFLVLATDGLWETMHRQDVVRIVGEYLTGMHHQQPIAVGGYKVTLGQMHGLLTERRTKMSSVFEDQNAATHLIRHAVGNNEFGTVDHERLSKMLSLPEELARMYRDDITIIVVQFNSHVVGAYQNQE
UniProt O00623: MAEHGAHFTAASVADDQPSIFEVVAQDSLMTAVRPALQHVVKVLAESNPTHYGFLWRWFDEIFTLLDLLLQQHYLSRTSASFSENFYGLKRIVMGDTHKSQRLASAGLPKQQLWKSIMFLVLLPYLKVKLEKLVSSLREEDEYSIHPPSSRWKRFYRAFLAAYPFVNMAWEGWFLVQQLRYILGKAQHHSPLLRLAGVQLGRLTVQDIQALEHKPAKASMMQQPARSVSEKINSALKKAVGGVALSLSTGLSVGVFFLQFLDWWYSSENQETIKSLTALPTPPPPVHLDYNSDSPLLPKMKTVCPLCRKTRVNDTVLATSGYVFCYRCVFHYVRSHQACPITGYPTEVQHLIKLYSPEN
UniProt Q86U86, whole entry, looked up: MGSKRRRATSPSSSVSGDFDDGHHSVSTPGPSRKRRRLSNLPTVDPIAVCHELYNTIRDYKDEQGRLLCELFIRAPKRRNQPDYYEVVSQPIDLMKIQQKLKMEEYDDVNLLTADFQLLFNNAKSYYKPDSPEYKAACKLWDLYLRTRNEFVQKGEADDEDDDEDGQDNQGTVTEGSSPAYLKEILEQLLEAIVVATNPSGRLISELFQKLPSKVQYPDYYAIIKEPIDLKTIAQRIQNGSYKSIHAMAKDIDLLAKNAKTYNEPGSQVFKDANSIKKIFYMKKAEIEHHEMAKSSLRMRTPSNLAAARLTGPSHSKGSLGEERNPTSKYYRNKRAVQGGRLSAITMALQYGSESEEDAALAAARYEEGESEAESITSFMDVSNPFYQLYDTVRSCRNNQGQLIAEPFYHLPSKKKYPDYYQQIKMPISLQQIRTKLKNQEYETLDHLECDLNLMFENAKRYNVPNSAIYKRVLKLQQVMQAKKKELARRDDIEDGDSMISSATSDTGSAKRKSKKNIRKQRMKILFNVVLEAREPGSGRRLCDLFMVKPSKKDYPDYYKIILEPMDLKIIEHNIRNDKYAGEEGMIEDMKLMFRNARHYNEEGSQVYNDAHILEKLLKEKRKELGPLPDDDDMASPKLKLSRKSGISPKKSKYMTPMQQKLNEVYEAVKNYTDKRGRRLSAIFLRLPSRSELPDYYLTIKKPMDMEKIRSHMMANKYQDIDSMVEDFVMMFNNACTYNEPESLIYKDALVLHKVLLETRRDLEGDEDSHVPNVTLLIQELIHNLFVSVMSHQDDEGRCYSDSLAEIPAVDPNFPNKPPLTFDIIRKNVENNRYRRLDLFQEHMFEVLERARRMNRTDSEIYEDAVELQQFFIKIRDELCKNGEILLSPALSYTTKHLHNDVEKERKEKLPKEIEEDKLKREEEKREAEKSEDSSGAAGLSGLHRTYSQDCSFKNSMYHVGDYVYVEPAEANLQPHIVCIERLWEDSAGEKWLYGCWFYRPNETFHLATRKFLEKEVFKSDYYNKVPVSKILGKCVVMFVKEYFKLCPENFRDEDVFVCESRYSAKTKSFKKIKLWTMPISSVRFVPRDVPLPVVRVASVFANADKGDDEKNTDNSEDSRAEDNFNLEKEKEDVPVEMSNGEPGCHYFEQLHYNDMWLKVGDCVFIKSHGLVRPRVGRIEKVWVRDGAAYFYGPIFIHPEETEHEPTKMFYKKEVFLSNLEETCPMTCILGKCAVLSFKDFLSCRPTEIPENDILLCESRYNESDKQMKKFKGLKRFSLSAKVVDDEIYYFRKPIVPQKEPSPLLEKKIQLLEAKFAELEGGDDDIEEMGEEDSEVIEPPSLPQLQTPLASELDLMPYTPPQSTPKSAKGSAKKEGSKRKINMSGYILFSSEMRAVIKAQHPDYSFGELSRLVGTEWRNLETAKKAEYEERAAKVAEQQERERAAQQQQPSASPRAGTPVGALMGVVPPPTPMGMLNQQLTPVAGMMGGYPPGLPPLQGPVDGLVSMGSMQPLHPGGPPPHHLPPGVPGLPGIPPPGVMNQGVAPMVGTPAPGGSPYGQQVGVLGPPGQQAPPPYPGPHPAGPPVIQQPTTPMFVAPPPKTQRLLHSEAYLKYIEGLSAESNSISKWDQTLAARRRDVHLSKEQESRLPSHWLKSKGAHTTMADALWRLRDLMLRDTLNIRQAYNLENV
UniProt Q8N8D1: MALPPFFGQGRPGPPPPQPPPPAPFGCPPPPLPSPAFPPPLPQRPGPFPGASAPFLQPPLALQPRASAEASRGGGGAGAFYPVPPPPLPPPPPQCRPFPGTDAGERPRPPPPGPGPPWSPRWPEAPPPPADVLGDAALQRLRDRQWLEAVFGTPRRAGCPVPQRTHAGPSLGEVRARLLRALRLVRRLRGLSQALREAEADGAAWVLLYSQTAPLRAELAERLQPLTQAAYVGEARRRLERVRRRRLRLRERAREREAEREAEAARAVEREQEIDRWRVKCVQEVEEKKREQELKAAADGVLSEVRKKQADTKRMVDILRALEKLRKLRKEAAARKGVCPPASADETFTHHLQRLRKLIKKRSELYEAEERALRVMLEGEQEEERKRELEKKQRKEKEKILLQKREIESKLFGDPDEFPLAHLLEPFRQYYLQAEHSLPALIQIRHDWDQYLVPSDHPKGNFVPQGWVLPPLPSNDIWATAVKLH
UniProt P27815: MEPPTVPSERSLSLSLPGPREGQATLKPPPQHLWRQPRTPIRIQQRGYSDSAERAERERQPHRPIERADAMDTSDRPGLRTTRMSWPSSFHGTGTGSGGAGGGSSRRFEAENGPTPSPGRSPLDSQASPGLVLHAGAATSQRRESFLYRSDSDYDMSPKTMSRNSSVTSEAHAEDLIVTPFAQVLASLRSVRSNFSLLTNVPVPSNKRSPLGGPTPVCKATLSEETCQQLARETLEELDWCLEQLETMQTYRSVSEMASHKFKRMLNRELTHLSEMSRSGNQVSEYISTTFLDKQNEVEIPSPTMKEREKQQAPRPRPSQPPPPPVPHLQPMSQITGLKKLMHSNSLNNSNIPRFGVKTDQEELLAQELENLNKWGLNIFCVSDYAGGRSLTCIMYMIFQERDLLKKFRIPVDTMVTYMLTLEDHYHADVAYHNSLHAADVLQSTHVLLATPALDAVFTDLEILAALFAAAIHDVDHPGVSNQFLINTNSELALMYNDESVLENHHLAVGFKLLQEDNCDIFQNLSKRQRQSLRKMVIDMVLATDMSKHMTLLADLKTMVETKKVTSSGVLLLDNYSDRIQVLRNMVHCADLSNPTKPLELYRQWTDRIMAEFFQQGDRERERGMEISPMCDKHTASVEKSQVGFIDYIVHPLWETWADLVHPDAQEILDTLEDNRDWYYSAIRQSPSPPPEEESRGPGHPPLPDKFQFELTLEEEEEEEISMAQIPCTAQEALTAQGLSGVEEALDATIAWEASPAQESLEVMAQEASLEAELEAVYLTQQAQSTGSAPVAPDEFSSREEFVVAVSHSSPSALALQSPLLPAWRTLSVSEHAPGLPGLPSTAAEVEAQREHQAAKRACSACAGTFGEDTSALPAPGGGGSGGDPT
UniProt O75340: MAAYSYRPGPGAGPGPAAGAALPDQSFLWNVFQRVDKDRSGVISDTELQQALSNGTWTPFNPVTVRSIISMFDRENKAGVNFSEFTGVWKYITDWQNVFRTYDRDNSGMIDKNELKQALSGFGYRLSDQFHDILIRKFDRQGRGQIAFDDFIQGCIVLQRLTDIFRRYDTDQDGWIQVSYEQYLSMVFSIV
UniProt O15534, whole entry, looked up: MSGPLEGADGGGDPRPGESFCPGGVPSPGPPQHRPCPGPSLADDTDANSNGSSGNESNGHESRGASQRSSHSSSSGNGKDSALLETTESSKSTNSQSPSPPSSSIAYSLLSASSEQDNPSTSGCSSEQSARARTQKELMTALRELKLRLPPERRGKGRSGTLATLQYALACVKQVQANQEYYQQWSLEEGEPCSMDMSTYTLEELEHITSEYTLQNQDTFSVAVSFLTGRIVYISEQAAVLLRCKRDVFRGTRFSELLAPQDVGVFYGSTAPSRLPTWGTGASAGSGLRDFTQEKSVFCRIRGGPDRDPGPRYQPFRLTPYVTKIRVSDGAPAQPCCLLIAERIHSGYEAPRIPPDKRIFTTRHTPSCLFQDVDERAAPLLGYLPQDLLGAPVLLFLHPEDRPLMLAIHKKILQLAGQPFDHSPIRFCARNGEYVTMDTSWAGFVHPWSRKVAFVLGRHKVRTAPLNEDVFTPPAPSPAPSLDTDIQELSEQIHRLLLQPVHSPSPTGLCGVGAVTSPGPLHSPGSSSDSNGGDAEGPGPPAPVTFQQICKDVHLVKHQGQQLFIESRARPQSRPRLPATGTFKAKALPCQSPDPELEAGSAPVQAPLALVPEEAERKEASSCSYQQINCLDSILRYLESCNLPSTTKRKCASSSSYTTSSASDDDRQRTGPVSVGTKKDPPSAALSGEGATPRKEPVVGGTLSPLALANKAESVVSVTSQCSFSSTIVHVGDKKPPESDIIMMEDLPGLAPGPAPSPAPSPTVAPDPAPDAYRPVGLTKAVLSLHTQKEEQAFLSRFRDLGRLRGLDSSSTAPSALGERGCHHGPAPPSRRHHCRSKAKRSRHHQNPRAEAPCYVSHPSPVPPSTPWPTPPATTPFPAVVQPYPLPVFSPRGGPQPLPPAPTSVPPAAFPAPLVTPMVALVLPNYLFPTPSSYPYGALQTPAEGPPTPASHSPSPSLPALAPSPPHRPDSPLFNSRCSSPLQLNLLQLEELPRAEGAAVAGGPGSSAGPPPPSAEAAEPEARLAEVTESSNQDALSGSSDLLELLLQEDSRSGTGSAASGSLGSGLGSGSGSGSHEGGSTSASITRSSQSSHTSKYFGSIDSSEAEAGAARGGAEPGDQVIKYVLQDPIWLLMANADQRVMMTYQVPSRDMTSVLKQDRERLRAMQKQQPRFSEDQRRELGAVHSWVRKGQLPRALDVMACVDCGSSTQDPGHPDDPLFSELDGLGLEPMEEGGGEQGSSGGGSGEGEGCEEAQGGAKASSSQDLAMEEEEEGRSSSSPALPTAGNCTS
UniProt Q13608: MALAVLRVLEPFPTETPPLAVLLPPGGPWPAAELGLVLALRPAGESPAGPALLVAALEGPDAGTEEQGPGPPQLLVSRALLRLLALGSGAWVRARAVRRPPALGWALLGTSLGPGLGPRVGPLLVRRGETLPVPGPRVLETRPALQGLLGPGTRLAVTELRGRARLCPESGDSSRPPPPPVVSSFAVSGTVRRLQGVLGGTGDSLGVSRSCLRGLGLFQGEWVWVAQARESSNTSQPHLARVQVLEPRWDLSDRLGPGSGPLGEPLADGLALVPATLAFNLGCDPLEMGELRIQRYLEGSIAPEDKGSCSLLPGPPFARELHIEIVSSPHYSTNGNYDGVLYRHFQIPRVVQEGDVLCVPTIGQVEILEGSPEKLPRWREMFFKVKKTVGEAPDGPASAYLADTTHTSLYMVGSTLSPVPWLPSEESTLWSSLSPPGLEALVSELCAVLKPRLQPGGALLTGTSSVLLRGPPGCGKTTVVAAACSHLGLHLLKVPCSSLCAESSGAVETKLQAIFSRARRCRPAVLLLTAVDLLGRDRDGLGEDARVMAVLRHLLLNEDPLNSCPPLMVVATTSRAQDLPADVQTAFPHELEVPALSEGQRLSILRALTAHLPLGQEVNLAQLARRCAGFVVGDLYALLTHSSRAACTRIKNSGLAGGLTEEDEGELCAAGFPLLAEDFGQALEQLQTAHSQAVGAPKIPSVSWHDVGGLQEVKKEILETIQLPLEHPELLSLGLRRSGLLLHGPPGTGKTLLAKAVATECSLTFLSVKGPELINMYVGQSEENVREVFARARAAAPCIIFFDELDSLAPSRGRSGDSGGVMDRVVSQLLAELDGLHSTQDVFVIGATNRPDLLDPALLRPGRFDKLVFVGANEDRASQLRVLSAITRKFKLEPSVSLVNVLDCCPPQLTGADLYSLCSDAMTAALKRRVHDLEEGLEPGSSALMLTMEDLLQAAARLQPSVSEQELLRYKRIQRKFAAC
UniProt O43924: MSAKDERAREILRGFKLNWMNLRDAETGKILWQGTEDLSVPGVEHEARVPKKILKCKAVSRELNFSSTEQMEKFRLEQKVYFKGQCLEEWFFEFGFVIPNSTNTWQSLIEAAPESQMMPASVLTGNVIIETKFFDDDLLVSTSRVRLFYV

Columns and labels:
Test in all cases: log2 fold change, soluble protein after heating vs DMSO (PISA); higher = thermal stabilisation; K562 lysate, 10 uM; active = over 0.2 and 3.5 SD of the protein, either way, in both replicates (recomputed)
[1] = compound: CC[C@@H]1C(=O)N(C)c2cnc(Nc3ccc(C(=O)NC4CCN(C)CC4)cc3OC)nc2N1C1CCCC1
Outline: (§1)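 Thermal stability, expressed as log-two fold change relative to solvent controls, is given from duplicates. Crude K562 extract in PBS pH 7.4 with 1 mM MgCl2, at 1 mg/mL protein, was treated with 10 μM compound for 30 min and heated in aliquots for 3 min across 48°C-58°C. After pooling, adjustment to 0.5% NP-40 at 4°C and centrifugation at 21,000xg for 90 min, supernatant protein was measured by TMTpro 16plex LC-MS/MS with channel sums equalised.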

encorafenib = compound: COC(=O)N[C@@H](C)CNc1nccc(-c2cn(C(C)C)nc2-c2cc(Cl)cc(NS(C)(=O)=O)c2F)n1 [encorafenib]
Outline: as §1

[2] = compound: COC(=O)[C@H](CCSC)NC(=O)C1=C(C=C(C=C1)NC[C@H](CS)N)C2=CC=CC=C2
Outline: as §1

vemurafenib = compound: CCCS(=O)(=O)Nc1ccc(F)c(C(=O)c2c[nH]c3ncc(-c4ccc(Cl)cc4)cc23)c1F [vemurafenib]
Outline: as §1

barasertib = compound: CCN(CCCOc1ccc2c(Nc3cc(CC(=O)Nc4cccc(F)c4)[nH]n3)ncnc2c1)CCOP(=O)(O)O [barasertib]
Outline: as §1

[3] = compound: CCn1cc(-c2ccnc3[nH]c(-c4cccc(CN(C)C)c4)cc23)c(-c2ccc(NC(=O)N(C)C)cc2)n1
Outline: as §1

[4] = compound: CN1CCC(CNc2ccc3ncc(-c4cccc(OC(F)(F)F)c4)n3n2)CC1
Outline: as §1

saracatinib = compound: CN1CCN(CCOc2cc(OC3CCOCC3)c3c(Nc4c(Cl)ccc5c4OCO5)ncnc3c2)CC1 [saracatinib]
Outline: as §1

alvocidib = compound: CN1CC[C@H](c2c(O)cc(O)c3c(=O)cc(-c4ccccc4Cl)oc23)[C@H](O)C1 [alvocidib]
Outline: as §1

[5] = compound: CNC(=O)C1=CC=CC=C1NC2=NC(=NC=C2Cl)NC3=C(C=C(C=C3)N4CCOCC4)OC
Outline: as §1

defactinib = compound: CNC(=O)c1ccc(Nc2ncc(C(F)(F)F)c(NCc3nccnc3N(C)S(C)(=O)=O)n2)cc1 [defactinib]
Outline: as §1

[6] = compound: CNc1nc(-c2ccc3c(N)n[nH]c3c2)cc(N2C[C@@H](C(=O)NC3CCCCC3)CC[C@H]2C)n1
Outline: as §1

alisertib = compound: COc1cc(Nc2ncc3c(n2)-c2ccc(Cl)cc2C(c2c(F)cccc2OC)=NC3)ccc1C(=O)O [alisertib]
Outline: as §1

gefitinib = compound: COc1cc2ncnc(Nc3ccc(F)c(Cl)c3)c2cc1OCCCN1CCOCC1 [gefitinib]
Outline: as §1

[7] = compound: CCn1c(C(=O)N(C2CC2)C2CC2)cc2c3c(ncn3C)c(Nc3cc(C)n(C)n3)nc21
Outline: as §1

Tubastatin A = compound: CN1CCc2c(c3ccccc3n2Cc2ccc(C(=O)NO)cc2)C1 [Tubastatin A]
Outline: as §1

sotrastaurin = compound: CN1CCN(c2nc(C3=C(c4c[nH]c5ccccc45)C(=O)NC3=O)c3ccccc3n2)CC1 [sotrastaurin]
Outline: as §1

[8] = compound: CCCS(=O)(=O)Nc1ccc(F)c(C(=O)c2c[nH]c3ncc(Cl)cc23)c1F
Outline: as §1

volasertib = compound: CC[C@@H]1C(=O)N(C)c2cnc(Nc3ccc(C(=O)N[C@H]4CC[C@H](N5CCN(CC6CC6)CC5)CC4)cc3OC)nc2N1C(C)C [volasertib]
Outline: as §1

[9] = compound: COc1cc2nc(-c3cc(F)ccc3O)nc(N[C@@H]3CNC[C@H]3C(C)(C)O)c2cc1OC
Outline: as §1

Measured: log2 fold change

PECR (UniProt Q9BY49)
inactive: [1] 0.023 | encorafenib 0.101 | [2] -0.184

PARPBP (UniProt Q9NWS1)
inactive: vemurafenib 0.13 | barasertib 0.057 | [1] 0.07 | [3] -0.371 | [4] 0.193 | saracatinib 0.019 | alvocidib 0.11 | [5] -0.004 | defactinib -0.152 | [6] 0.145 | encorafenib 0.03 | [2] -0.016 | alisertib -0.033 | gefitinib 0.112

PDIK1L (UniProt Q8N165)
inactive: [7] 0.203 | saracatinib 0.025 | Tubastatin A -0.14 | [6] -0.31

PDE4DIP (UniProt E9PS60)
inactive: vemurafenib -0.014 | [1] 0.017 | [4] 0.153 | saracatinib 0.067 | sotrastaurin 0.137 | alvocidib -0.111 | [5] -0.02 | defactinib 0.056 | [6] -0.089 | encorafenib -0.059 | [2] -0.039 | alisertib 0.013 | gefitinib 0.005
active: [3] -0.942

PDP1 isoform 2 (UniProt Q9P0J1)
inactive: [1] 0.018 | [7] -0.743 | saracatinib -0.062 | Tubastatin A 0.407 | [5] 0.025 | [6] -0.205 | encorafenib 0.14 | [2] -0.319

PCBP2 (UniProt F8VRH0)
inactive: [8] -0.035 | volasertib -0.058 | [7] -0.138 | [3] -0.033 | [4] -0.047 | sotrastaurin -0.066 | alvocidib -0.1 | Tubastatin A 0.067 | [5] -0.123 | alisertib 0.231 | [9] 0.096 | gefitinib 0.045

PCBP2 (UniProt F8W0G4)
inactive: vemurafenib 0.121 | barasertib 0.035 | [1] -0.253 | [7] -0.066 | saracatinib 0.005 | Tubastatin A -0.009 | [5] 0.01 | defactinib 0.044 | [6] 0.033 | encorafenib 0.125 | [2] -0.006 | alisertib 0.192 | gefitinib 0.028

PEX3 (UniProt P56589)
inactive: [8] 0.077 | [1] -0.02 | volasertib 0.059 | [3] -0.184 | [4] 0.306 | saracatinib -0.04 | sotrastaurin -0.013 | alvocidib -0.099 | [6] 0.042 | encorafenib -0.144 | [2] 0.066 | [9] 0.09

PEX12 (UniProt O00623)
inactive: [8] 0.014 | volasertib -0.014 | [3] 0.083 | [4] -0.236 | alvocidib 0.117 | [9] -0.063

PEX10 isoform 2 (UniProt O60683)
inactive: barasertib 0.213

PDE8A (UniProt O60658)
inactive: vemurafenib -0.205 | barasertib -0.105 | sotrastaurin 0.016 | [5] 0.164 | defactinib 0

Fetched one by one from above, two records:
PECR (UniProt Q9BY49)
inactive: [1] 0.023 | encorafenib 0.101 | [2] -0.184

PARPBP (UniProt Q9NWS1)
inactive: vemurafenib 0.13 | barasertib 0.057 | [1] 0.07 | [3] -0.371 | [4] 0.193 | saracatinib 0.019 | alvocidib 0.11 | [5] -0.004 | defactinib -0.152 | [6] 0.145 | encorafenib 0.03 | [2] -0.016 | alisertib -0.033 | gefitinib 0.112

Continued.

PARP4 (UniProt Q9UKK3)
inactive: [8] -0.032 | barasertib 0.056 | [1] 0.006 | volasertib -0.338 | [3] 0.13 | [4] -0.008 | saracatinib 0.068 | sotrastaurin 0.01 | alvocidib 0.004 | [5] -0.011 | [6] -0.056 | encorafenib 0.034 | [2] 0.036 | alisertib -0.047 | [9] 0.196 | gefitinib -0.183

PDIA4, A0A499FI48
active: [3] 1.69
inactive: [4] -0.33 | saracatinib 0.03 | sotrastaurin -0.048 | alvocidib 0.336 | [6] -0.003

PBRM1 (UniProt Q86U86)
inactive: [8] 0.005 | barasertib 0.028 | [1] 0.155 | volasertib -0.064 | [7] 0.007 | [3] -0.049 | [4] -0.077 | saracatinib -0.092 | sotrastaurin -0.078 | alvocidib -0.165 | Tubastatin A 0.007 | [5] -0.044 | [6] 0.03 | encorafenib 0.036 | [2] 0.09 | alisertib 0.051 | [9] -0.004 | gefitinib -0.085

PDCD7 (UniProt Q8N8D1)
inactive: [1] -0.204 | sotrastaurin -0.038 | encorafenib 0.197 | [2] -0.044

PDE4A (UniProt P27815)
inactive: vemurafenib 0.008 | barasertib -0.038 | [1] 0.139 | [7] 0.078 | [3] 0.206 | [4] -0.003 | saracatinib -0.071 | sotrastaurin -0.003 | alvocidib -0.023 | Tubastatin A -0.007 | [5] 0.023 | defactinib -0.264 | [6] -0.055 | encorafenib -0.03 | [2] -0.04 | alisertib -0.035 | gefitinib 0.05

PEX5 (UniProt J3KPV0)
inactive: vemurafenib -0.053 | [1] 0 | [7] 0.324 | Tubastatin A -0.043 | defactinib 0.209 | encorafenib -0.042 | [2] 0.054

PDCD6 isoform 2 (UniProt O75340)
inactive: [7] -0.018 | [3] -0.018 | [4] -0.032 | alvocidib 0.047 | Tubastatin A -0.035

PGD (UniProt K7EPF6)
inactive: [8] 0.041 | barasertib 0.527 | volasertib -0.014 | sotrastaurin 0.109 | alisertib -0.001 | [9] 0.104 | gefitinib -0.094

PCMTD2 (UniProt Q9NV79)
inactive: vemurafenib 0.109 | [1] -0.163 | sotrastaurin -0.192 | [5] -0.357 | defactinib 0.095 | encorafenib 0 | [2] 0.11

PCGF3 isoform 2 (UniProt Q3KNV8)
inactive: sotrastaurin 0.193 | [5] 0.051

PCGF1 (UniProt Q9BSM1)
inactive: vemurafenib 0.151 | [1] 0.052 | [3] -0.21 | [4] -0.021 | saracatinib 0.036 | alvocidib -0.044 | [5] 0.026 | defactinib -0.174 | [6] -0.274 | encorafenib 0.06 | [2] 0.116

PARP12 (UniProt Q9H0J9)
inactive: [8] -0.281 | barasertib 0.001 | [1] -0.021 | volasertib 0.051 | [7] 0.049 | saracatinib 0.025 | sotrastaurin 0.047 | Tubastatin A 0.093 | [5] 0.088 | [6] -0.017 | encorafenib 0.056 | [2] 0.02 | [9] -0.07

PER1 (UniProt O15534)
inactive: [3] -0.173 | [4] -0.047 | saracatinib -0.111 | sotrastaurin -0.154 | alvocidib 0.04 | [6] -0.425

PEX6 (UniProt Q13608)
inactive: barasertib -0.107 | [1] 0.181 | [3] 0.024 | [4] -0.29 | saracatinib -0.001 | alvocidib -0.051 | [5] -0.092 | [6] -0.034 | encorafenib -0.02 | [2] 0.069

PDE6D (UniProt O43924)
inactive: [8] 0.101 | barasertib 0.188 | [1] 0.121 | volasertib -0.052 | [7] -0.149 | [3] -0.006 | [4] 0.077 | saracatinib -0.026 | alvocidib -0.027 | Tubastatin A -0.049 | [5] 0.048 | [6] 0.058 | encorafenib -0.101 | [2] -0.077 | alisertib -0.024 | [9] 0.031 | gefitinib 0.024

PEAK1 (UniProt Q9H792)
inactive: vemurafenib 0.031 | barasertib 0.075 | [7] 0.051 | [3] 0.011 | [4] -0.014 | saracatinib -0.019 | sotrastaurin -0.011 | alvocidib -0.067 | Tubastatin A -0.139 | [5] 0.164 | defactinib -0.116 | [6] 0.022 | alisertib 0.062 | gefitinib -0.083
